Measured values as given in PMC8274477.
Results are given in words; binding and its absence hold for the method and conditions named. Some results given as binding are weak or reduced against the parent protein; the word gives no strength.

Chains of the proteins cited; added tags and fusions are not shown.
UniProt Q9NTK5: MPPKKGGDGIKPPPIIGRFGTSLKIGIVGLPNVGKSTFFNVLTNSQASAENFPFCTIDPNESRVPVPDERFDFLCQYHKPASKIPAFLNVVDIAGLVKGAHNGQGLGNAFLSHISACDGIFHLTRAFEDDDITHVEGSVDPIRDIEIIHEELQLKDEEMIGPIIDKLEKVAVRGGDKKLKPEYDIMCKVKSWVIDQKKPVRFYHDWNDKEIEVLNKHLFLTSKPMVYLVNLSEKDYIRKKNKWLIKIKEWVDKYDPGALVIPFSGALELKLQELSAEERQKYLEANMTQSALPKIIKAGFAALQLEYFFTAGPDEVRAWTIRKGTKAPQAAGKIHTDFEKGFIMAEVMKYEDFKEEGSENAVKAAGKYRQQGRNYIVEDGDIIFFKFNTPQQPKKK
UniProt Q9UHX1: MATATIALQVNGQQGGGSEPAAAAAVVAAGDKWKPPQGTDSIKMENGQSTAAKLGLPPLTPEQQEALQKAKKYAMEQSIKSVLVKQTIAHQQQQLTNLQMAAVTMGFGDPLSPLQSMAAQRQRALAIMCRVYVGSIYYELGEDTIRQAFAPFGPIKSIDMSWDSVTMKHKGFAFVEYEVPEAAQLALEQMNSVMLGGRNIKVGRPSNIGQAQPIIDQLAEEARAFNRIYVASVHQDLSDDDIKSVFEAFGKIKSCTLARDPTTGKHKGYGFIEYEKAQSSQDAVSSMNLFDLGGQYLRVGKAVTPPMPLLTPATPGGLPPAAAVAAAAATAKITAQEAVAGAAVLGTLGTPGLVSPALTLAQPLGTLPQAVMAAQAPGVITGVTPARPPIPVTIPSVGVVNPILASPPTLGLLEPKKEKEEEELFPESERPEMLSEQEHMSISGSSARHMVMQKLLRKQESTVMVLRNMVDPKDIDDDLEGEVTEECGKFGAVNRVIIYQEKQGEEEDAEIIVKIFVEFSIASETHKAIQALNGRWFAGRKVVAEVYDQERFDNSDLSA

How the values were obtained:
Test in all cases: peptide or protein array; HuProt human proteome microarray; 5 ug/5 ml biotin-labelled LUBAC or OTULIN in solution, 1 h at room temperature; Cy5-streptavidin, scanned at 635 nm; BSA as negative control; hits: Z-score >= 3 and I_(Mean_Ratio) >= 1.4; both purified
[1] = molecular target: OLA1 (human) (UniProt Q9NTK5)
[2] = molecular target: T1, KCNAB2 (human) (UniProt Q13303)
T1 sequence: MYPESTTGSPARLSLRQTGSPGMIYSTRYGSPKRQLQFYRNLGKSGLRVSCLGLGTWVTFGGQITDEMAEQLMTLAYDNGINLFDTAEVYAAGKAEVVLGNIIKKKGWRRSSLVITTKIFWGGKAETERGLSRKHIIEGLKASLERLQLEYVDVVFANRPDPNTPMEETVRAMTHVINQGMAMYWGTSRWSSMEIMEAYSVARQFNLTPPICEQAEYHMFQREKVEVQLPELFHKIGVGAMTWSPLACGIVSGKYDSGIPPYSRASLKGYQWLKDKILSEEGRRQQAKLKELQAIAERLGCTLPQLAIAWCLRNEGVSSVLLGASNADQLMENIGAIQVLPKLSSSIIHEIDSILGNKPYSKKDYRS

[3] = molecular target: T2, CPT1A (human) (UniProt P50416)
T2 sequence: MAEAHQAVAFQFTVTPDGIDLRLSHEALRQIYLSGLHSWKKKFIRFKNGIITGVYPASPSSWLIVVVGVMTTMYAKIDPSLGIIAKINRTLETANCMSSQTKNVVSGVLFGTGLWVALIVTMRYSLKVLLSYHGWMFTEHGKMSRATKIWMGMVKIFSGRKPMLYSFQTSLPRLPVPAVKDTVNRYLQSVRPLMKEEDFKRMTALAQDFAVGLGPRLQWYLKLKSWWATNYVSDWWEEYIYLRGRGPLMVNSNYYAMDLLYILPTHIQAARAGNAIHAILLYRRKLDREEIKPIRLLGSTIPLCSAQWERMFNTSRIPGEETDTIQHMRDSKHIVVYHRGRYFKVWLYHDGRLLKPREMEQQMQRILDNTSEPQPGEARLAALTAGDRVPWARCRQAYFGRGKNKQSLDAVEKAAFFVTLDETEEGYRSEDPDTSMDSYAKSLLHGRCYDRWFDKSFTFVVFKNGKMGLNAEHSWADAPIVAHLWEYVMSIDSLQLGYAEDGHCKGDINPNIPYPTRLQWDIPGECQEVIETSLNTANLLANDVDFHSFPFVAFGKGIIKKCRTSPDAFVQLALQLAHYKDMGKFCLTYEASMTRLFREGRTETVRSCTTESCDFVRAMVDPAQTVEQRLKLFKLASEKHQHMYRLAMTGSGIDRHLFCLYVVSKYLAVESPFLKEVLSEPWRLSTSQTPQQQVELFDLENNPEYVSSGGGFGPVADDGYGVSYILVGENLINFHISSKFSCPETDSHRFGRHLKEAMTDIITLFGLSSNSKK

[4] = molecular target: PUF60 (human) (UniProt Q9UHX1)
[5] = molecular target: T3, RBM42 (human) (UniProt Q9BTD8)
T3 sequence: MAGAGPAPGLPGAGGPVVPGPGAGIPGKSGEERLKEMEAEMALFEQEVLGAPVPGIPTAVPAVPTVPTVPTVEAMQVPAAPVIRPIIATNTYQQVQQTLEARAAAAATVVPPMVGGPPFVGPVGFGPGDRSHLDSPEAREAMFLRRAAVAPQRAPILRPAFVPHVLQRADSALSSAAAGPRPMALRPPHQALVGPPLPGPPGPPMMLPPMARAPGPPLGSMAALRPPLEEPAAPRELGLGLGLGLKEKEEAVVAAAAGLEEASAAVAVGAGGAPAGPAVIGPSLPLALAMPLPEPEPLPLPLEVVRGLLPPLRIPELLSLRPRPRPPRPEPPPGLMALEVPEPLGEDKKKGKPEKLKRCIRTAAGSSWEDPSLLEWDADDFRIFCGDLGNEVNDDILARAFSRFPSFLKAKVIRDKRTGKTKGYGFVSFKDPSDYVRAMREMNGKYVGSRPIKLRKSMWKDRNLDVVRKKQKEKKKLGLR

Measured: binding

linear ubiquitin chain assembly complex (LUBAC), purified as HIS-tagged HOIP with the subunit HOIL-1, biotin-labelled (from UniProt Q96EP0 1-1072; Q9BYM8 1-510)
binds: all assays above
